Measured values reported in patent US20240218024A1, “METHODS AND COMPOSITIONS FOR TREATMENT OF VIRAL INFECTION” (TECHNION RESEARCH & DEVELOPMENT FOUNDATION LIMITED, priority 2021, published 2024).
Some entries share one result that the patent states for a list of compounds. Some ranges recur; such a range may be that of the whole group of compounds.

B1: PCP-3×/MCP-3×: class II slncRNA with three PCP binding sites spaced by non-PCP hairpins (SEQ ID NO: 25) (nucleic acid)
chain: GAGAAACGTTTCGACATTATATGGAATGCGAAAGTGGAACGTAATGGACATGAAGACGATTACGCTTCACACGGAGGATGCGGGAAACATGAAGATCACCCACGCTTAACCATGGATAGGGATCACCCATGTTGCGGTGGTGCGTCAACCAGAGATTTCATATGGGAAACTCTGGGACACGCTGTATTTATACATGAGGATCACCATGTGTGCTTAAATATGGGTAAGTTGACCATTAGGCAACTGTAAGATGCTCCGGTTAATTCCAGTTTATATGGAAACGGAATTGATGTACCGTTGAGCAAGAACACGATTACGGTTCTTCGATTAGATATGGGGTGGGAGGTAGAGGGATTCTCGCGAGAAGA
B2: PCP-4×/MCP-4×: class II slncRNA with four PCP binding sites spaced by non-PCP hairpins (SEQ ID NO: 26) (nucleic acid)
chain: GAGAAACGTTTCGACATTATATGGAATGCGAAAGTGGAACGTAATGGACATGAAGACGATTACGCTTCACACGGAGGATGCGGGAAACATGAAGATCACCCATGTTCGCTTAACCATGGATAGGGATCACCCATGTTGCGGTGGTGCGTCAACCAGAGATTTCATATGGGAAACTCTGGGACACGCTGTATTTATACATGAGGATCACCATGTGTGCTTAAATATGGGTAAGTTGACCATTAGGCAACTGTAAGATGCTCCGGTTAATTCCAGTTTATATGGAAACGGAATTGATGTACCGTTGAGCAAGAACACGATTACGGTTCTTCGATTAGATATGGTTTAAACGACAATATATGGATTGCGTTTTGGGGCACGCCGTCTGGAGAAGACCATTAGGCTTCTTTACTGCGATGGGTGGGAGGTAGAGGGATTCTCGCGAGAAGAA
B3: PCP-8×: class I slncRNA with eight PCP binding hairpins (SEQ ID NO: 27) (nucleic acid)
chain: GAGAAACGTTTCGACATTATATGGAATGCGAAACACGGAGGATGCGGGAAACATGAAGATCACCCATGTTCGCTTAACCATGGATAGGGATCACCCATGTTGCGGTGGTGCGTCAACCAGAGATTTCATATGGGAAACTCTGGGACACGCTGTATTTATACATGAGGATCACCATGTGTGCTTAAATATGGGTAATTCCAGTTTATATGGAAACGGAATTAGGCTAGAGCATGGCGGTATTGAGTTCGGGTTTGAAACGACAATATATGGATTGCGTTTTGGGGCACGCCGTCTGGAAAGGAGATTATATGAAATCCCTTTGCGCGCAACCGGGTAGATACGAGTCAATATGGTGACCGTACCTTGGTGGGGAAGCGATAAGCACATTATAAGGAATGGCTTAGTGCTAGACCCTGGTCTTTTCGAGAAAATATGGTTTCCGAAAATGGGTGGGAGGTAGAGGGATTCTCGCGAGAAGAA

Experiment: In vitro slncRNA and slncRNA-protein granule formation (fluorescence microscopy)
Format: physicochemical
Conditions: slncRNA-only condensates

Molecule | Poisson parameter λ best fit of condensate fluorescence intensity distribution
B1 | 1-2
B2 | 1-2
B3 | 1-2
